Some of the results follow.

The chains behind the UniProt entries cited, without tags or fusion partners. Where a name states a change or a piece, a line headed by the entry shows the natural chain unless it says otherwise.
UniProt Q13509, whole entry, looked up: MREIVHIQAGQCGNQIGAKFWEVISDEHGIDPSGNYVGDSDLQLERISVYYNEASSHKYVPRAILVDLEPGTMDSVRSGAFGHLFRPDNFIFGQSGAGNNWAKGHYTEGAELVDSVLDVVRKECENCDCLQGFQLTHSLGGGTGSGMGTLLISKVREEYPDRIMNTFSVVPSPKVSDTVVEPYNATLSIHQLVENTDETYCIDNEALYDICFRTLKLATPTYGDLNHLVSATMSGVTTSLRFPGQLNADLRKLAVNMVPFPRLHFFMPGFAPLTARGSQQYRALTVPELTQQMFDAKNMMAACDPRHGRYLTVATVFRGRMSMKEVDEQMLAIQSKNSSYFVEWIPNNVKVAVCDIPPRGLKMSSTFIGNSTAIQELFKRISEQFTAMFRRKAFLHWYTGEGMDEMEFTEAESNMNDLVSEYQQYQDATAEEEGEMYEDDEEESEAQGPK
UniProt O43396: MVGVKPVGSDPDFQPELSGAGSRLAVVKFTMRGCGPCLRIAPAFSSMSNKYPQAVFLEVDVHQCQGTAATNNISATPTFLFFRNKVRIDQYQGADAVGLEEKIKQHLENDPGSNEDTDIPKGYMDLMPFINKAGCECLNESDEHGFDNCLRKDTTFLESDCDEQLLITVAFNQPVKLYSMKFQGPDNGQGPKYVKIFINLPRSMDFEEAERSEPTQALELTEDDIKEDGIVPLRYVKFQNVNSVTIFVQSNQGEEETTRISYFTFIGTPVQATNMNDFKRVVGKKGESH
UniProt Q6ZT12: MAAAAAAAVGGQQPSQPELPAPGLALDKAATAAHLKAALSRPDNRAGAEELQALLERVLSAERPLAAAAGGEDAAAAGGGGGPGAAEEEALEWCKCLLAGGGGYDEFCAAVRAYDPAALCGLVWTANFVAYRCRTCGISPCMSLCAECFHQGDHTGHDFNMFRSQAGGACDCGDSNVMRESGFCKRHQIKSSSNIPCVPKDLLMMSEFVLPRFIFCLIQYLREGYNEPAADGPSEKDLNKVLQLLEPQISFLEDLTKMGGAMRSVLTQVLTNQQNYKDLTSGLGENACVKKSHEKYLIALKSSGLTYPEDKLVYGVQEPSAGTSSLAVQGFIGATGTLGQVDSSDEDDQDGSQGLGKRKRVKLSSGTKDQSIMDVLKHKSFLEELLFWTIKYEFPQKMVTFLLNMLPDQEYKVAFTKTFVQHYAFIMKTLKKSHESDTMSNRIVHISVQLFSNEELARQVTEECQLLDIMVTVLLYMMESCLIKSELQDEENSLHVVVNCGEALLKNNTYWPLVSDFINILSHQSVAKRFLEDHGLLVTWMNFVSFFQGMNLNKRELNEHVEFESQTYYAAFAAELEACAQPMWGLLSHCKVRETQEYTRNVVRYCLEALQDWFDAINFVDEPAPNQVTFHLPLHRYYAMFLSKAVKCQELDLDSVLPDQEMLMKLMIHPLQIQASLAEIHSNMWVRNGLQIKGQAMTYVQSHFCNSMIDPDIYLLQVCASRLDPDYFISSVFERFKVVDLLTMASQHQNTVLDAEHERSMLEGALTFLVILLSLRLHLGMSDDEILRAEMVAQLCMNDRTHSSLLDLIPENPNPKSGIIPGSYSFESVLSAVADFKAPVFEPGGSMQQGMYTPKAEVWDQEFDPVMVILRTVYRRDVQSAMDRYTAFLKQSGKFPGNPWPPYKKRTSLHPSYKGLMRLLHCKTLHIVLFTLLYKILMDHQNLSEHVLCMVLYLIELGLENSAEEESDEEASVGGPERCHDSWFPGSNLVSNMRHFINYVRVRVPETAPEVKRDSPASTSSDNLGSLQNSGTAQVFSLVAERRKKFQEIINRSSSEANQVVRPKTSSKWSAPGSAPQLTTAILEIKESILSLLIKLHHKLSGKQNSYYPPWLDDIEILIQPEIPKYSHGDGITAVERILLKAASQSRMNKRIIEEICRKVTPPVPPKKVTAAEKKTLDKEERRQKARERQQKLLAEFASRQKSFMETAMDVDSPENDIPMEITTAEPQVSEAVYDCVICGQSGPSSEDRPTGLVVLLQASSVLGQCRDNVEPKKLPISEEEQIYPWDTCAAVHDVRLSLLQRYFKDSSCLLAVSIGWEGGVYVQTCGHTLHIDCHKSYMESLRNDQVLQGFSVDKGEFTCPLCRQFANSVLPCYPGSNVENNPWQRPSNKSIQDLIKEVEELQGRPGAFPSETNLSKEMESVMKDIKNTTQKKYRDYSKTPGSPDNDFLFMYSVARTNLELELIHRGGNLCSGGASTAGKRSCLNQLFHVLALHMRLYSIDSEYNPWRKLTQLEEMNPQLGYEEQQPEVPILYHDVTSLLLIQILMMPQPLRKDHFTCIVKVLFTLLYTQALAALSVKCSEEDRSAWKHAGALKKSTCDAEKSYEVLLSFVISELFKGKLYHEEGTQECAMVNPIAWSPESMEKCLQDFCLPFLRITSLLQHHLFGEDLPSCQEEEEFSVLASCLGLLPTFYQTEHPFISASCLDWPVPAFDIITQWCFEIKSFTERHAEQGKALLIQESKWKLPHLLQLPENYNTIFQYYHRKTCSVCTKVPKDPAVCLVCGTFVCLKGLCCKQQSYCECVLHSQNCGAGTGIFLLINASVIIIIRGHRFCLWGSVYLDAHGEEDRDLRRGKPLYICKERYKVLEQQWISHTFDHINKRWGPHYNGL
UniProt Q9C0C9: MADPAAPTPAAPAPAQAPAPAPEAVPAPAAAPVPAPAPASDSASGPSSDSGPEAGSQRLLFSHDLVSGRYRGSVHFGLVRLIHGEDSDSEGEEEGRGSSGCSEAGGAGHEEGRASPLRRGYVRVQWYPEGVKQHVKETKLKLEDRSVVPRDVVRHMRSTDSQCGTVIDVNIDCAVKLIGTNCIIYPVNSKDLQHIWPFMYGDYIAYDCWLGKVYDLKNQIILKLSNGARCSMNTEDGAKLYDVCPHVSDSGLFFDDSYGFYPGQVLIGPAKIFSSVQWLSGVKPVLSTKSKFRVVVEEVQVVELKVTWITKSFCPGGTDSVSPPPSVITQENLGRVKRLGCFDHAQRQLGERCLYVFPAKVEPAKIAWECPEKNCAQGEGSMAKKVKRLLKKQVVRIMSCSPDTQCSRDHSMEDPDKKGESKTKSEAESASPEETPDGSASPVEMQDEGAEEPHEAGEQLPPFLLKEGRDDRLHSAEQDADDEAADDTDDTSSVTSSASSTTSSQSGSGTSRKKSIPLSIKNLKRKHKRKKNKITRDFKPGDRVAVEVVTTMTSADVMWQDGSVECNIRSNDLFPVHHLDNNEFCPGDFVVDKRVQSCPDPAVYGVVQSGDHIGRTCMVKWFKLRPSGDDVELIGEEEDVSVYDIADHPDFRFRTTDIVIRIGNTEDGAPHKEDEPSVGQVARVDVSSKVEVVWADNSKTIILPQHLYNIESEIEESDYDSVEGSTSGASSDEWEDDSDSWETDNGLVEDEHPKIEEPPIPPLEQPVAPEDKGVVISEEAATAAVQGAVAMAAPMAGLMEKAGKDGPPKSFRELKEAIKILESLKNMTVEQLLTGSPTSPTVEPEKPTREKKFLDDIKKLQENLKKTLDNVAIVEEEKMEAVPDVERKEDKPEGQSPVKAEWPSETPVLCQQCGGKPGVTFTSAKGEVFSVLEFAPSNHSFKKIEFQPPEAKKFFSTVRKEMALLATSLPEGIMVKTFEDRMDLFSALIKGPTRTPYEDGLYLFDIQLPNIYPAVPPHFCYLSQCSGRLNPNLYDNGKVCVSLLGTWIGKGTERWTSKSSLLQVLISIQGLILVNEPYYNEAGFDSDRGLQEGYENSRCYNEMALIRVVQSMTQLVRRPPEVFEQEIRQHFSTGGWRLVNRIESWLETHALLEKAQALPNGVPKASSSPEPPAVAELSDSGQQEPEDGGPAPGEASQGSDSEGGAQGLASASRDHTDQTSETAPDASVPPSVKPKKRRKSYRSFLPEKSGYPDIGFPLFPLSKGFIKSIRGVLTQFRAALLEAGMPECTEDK
UniProt Q9NPD8: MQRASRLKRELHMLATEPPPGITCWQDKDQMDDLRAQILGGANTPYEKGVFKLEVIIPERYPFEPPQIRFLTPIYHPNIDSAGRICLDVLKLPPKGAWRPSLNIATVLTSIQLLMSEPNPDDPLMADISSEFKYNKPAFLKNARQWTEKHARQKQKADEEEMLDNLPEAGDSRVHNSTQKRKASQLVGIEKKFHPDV
UniProt P62256: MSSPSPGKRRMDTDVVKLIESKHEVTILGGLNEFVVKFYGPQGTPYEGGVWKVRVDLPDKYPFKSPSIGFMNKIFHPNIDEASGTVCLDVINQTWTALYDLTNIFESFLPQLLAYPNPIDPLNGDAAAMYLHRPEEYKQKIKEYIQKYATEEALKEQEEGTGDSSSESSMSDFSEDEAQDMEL
UniProt Q9BZV1: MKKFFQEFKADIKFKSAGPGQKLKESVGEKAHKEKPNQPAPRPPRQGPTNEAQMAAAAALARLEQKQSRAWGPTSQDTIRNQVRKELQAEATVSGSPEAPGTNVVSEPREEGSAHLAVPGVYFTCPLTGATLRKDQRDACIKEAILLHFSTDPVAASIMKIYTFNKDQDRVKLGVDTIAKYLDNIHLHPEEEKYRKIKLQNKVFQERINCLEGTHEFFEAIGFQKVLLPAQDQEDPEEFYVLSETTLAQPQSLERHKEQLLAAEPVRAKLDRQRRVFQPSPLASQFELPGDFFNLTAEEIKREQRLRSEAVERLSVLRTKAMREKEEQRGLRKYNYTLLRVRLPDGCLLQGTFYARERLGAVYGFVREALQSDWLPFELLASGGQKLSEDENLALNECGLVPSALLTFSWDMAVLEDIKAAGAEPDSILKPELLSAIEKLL
UniProt Q8IWV8: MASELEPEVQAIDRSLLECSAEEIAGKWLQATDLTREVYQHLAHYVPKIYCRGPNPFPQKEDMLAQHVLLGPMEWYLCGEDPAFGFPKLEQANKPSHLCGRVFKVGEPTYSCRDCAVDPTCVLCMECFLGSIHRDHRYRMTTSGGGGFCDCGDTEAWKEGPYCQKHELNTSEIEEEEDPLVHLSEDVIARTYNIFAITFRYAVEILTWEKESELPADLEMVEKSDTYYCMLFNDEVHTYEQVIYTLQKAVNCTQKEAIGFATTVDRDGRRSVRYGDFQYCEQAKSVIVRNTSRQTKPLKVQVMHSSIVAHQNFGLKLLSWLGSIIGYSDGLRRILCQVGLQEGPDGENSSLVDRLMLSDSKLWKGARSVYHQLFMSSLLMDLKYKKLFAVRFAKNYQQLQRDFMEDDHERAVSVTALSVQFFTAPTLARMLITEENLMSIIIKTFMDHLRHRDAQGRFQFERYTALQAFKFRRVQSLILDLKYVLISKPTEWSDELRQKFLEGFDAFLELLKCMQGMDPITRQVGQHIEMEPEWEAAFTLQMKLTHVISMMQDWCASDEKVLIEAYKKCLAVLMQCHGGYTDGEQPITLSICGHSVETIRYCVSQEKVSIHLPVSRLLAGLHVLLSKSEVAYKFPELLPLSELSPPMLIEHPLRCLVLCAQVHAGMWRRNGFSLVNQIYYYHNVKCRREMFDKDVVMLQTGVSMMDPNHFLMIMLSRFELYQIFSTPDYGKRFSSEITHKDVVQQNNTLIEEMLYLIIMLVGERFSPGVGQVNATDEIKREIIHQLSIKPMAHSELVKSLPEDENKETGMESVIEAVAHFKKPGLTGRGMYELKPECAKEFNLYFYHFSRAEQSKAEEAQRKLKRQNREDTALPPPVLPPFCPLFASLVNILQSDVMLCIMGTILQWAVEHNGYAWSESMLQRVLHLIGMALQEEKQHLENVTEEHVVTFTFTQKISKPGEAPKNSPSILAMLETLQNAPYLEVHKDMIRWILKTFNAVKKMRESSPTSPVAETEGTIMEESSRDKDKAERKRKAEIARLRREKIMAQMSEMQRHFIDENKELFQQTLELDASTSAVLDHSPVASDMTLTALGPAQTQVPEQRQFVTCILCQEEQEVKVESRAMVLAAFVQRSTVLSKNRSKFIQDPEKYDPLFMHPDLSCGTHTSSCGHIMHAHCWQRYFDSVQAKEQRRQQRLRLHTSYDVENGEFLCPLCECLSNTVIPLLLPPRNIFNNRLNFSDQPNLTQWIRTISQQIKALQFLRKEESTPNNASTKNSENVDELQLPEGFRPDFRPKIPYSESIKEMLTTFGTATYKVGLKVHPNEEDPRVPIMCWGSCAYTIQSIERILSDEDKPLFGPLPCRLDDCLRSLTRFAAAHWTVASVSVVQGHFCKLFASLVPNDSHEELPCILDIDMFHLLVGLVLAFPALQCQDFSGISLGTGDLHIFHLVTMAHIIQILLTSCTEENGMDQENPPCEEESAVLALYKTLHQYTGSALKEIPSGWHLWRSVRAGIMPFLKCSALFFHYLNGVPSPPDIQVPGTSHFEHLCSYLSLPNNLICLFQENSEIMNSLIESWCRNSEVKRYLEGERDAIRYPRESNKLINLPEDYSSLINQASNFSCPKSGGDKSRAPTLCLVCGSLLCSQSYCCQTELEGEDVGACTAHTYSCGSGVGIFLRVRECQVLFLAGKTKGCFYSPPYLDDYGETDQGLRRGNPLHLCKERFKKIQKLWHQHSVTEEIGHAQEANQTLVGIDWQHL

Compound in the first assay: CCn1c(C(=O)N(C2CC2)C2CC2)cc2c3c(ncn3C)c(Nc3cc(C)n(C)n3)nc21
The assay is described as follows: log2 fold change, soluble protein after heating vs DMSO (PISA); higher = thermal stabilisation; K562 lysate, 10 uM; active = over 0.2 and 3.5 SD of the protein, either way, in both replicates (recomputed). In outline:
(§1)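 Thermal stability, expressed as log-two fold change relative to solvent controls, is given from duplicates. Crude K562 extract in PBS pH 7.4 with 1 mM MgCl2, at 1 mg/mL protein, was treated with 10 μM compound for 30 min and heated in aliquots for 3 min across 48°C-58°C. After pooling, adjustment to 0.5% NP-40 at 4°C and centrifugation at 21,000xg for 90 min, supernatant protein was measured by TMTpro 16plex LC-MS/MS with channel sums equalised.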
For the target TTPAL (UniProt Q9BTX7), the log2 fold change was inactive: -0.002.
In the case of TUBB3 (UniProt Q13509), the log2 fold change is inactive: 0.027.
The same measure, in the same setting: under TYW3 (UniProt Q6IPR3) stands inactive: -0.02.
On the same count and under the same terms, under TXNL1 (UniProt O43396) stands inactive: 0.004; under UBAP2 (UniProt Q5T6F2), inactive: 0.004; under UBE2Q1 (UniProt Q7Z7E8), inactive: -0.018.
As to UBR3 isoform 4 (UniProt Q6ZT12), the log2 fold change is inactive: -0.011.
With UBE2NL (UniProt Q5JXB2), the log2 fold change was inactive: 0.
Same read-out and setting: with TUT4 (UniProt Q5TAX3) the figure was inactive: 0.031.
The same measure, in the same setting: with TYMS (UniProt P04818) the figure was inactive: -0.004.
On the same count and under the same terms, with TWF1 (UniProt Q12792) the figure was inactive: 0.068.

Compound in a further assay: CCn1cc(-c2ccnc3[nH]c(-c4cccc(CN(C)C)c4)cc23)c(-c2ccc(NC(=O)N(C)C)cc2)n1
The description is as above. In a few lines:
as §1
For the target TXNDC9 (UniProt O14530), the log2 fold change was inactive: -0.16.
The same measure, in the same setting: with UBE2G1 (UniProt P62253) the figure was inactive: 0.005; with TUBE1 (UniProt Q9UJT0), inactive: 0.257.
Take UBP1 (UniProt Q9NZI7): the log2 fold change is active: 0.228.
Still for that read-out and setting: under UCK1 isoform 4 (UniProt Q9HA47) stands inactive: -0.21.
On to TUBA1B (UniProt P68363), for which the log2 fold change is inactive: -0.008.
Same read-out and setting: with UBFD1 (UniProt O14562) the figure was inactive: -0.031.
On the same count and under the same terms, with UBQLN2 (UniProt Q9UHD9) the figure was inactive: -0.065; with UBE2O (UniProt Q9C0C9), inactive: -0.12; with UBA6, inactive: 0.061.
Still for that read-out and setting: with UBE2T (UniProt Q9NPD8) the figure was inactive: -0.017; with UBE2I (UniProt P63279), inactive: -0.123; with TUSC3 isoform 2 (UniProt Q13454), inactive: -0.175.
As to UBR5 (UniProt O95071), the log2 fold change is inactive: -0.029.
Same read-out and setting: with UBE2H (UniProt P62256) the figure was inactive: 0.166; with UBXN6 (UniProt Q9BZV1), inactive: 0.008.
On the same count and under the same terms, with U2AF2 (UniProt P26368) the figure was inactive: 0.037; with UBE2Z (UniProt Q9H832), inactive: -0.104; with UBXN4 (UniProt Q92575), inactive: -0.209.
The same measure, in the same setting: under UAP1L1 (UniProt Q3KQV9) stands inactive: 0.25; under UBR2 isoform 4 (UniProt Q8IWV8), inactive: -0.005.
In the case of UBXN10 (UniProt Q96LJ8), the log2 fold change was inactive: -0.082.
Still for that read-out and setting: with UBE2A (UniProt P49459) the figure was inactive: 0.072.
Regarding U2SURP (UniProt O15042), the log2 fold change is inactive: 0.013.
The same measure, in the same setting: under TTPAL (UniProt Q9BTX7) stands inactive: -0.153; under TUBB3 (UniProt Q13509), inactive: -0.002.
On the same count and under the same terms, with TYW3 (UniProt Q6IPR3) the figure was inactive: -0.218; with TXNL1 (UniProt O43396), inactive: -0.043; with UBAP2 (UniProt Q5T6F2), inactive: -0.172.
On the same count and under the same terms, with UBE2Q1 (UniProt Q7Z7E8) the figure was inactive: 0.011; with UBR3 isoform 4 (UniProt Q6ZT12), inactive: -0.015.
As to UBE2NL (UniProt Q5JXB2), the log2 fold change is inactive: -0.006.
The same measure, in the same setting: with TUT4 (UniProt Q5TAX3) the figure was inactive: -0.085; with TYMS (UniProt P04818), inactive: -0.035; with TWF1 (UniProt Q12792), inactive: -0.062.
